Results from PMC5384328.
No constants are given. Whether binding was seen depends on the method and setting. In cells and extracts the contact can be indirect. These calls come from enrichment with a bait or labelling near it, and not all partners need be listed.

Amino acid sequences for entries named in this document (tags omitted).
UniProt P55060: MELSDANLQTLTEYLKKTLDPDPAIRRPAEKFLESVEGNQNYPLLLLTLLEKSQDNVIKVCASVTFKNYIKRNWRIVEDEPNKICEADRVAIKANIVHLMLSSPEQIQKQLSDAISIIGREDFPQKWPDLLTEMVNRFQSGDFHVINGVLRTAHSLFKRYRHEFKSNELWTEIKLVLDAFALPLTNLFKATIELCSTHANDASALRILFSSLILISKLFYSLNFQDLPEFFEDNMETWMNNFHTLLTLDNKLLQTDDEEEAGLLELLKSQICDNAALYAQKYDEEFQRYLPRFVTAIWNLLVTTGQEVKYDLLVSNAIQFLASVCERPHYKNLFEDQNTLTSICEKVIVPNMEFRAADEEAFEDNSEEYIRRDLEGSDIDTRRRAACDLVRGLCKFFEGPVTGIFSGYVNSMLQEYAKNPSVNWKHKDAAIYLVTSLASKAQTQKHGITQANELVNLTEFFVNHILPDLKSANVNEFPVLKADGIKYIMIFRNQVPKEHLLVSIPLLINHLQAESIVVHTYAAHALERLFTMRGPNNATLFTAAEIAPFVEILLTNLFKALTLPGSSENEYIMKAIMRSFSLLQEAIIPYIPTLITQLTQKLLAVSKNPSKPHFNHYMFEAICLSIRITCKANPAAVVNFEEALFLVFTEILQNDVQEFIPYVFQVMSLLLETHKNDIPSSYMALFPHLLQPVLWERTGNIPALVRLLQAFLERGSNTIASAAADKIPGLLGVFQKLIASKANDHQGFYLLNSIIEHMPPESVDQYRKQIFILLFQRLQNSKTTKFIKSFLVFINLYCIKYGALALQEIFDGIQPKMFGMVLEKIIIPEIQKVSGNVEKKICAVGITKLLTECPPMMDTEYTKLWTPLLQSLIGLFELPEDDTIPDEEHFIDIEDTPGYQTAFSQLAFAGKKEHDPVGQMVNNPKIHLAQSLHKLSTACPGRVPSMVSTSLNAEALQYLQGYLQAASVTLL
UniProt P52701: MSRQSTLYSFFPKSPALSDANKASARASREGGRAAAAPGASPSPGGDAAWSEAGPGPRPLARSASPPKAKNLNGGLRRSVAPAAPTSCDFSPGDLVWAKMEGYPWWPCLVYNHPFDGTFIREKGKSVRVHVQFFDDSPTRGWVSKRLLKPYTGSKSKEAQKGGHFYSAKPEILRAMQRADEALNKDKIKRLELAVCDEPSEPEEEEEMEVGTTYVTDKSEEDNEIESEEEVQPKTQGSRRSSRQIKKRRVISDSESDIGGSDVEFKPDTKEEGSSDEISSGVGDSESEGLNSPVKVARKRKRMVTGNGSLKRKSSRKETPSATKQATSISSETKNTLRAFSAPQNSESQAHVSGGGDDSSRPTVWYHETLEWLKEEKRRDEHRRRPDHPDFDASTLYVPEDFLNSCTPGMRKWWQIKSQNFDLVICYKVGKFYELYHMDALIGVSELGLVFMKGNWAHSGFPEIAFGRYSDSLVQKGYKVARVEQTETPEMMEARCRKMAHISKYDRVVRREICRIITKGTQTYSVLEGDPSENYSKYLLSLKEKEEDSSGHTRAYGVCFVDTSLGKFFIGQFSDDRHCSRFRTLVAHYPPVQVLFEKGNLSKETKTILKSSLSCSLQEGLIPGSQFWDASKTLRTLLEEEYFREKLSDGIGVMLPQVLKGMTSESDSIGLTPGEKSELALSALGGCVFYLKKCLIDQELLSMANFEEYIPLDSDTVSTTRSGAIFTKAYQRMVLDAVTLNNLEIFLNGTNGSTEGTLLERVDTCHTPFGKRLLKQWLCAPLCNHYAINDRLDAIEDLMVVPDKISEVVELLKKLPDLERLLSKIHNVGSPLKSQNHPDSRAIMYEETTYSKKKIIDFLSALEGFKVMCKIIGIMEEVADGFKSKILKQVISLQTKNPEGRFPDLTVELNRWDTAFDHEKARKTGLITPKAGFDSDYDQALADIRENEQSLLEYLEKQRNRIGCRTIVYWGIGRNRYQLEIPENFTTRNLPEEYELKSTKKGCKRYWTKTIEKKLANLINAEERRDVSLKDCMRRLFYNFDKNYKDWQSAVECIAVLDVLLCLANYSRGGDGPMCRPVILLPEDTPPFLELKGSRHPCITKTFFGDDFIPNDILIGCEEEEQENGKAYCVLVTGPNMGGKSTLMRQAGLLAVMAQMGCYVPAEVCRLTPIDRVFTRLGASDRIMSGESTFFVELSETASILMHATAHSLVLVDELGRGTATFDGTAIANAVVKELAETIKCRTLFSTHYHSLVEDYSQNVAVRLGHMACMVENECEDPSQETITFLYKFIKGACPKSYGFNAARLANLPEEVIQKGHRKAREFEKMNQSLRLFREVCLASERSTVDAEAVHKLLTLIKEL
UniProt P12956: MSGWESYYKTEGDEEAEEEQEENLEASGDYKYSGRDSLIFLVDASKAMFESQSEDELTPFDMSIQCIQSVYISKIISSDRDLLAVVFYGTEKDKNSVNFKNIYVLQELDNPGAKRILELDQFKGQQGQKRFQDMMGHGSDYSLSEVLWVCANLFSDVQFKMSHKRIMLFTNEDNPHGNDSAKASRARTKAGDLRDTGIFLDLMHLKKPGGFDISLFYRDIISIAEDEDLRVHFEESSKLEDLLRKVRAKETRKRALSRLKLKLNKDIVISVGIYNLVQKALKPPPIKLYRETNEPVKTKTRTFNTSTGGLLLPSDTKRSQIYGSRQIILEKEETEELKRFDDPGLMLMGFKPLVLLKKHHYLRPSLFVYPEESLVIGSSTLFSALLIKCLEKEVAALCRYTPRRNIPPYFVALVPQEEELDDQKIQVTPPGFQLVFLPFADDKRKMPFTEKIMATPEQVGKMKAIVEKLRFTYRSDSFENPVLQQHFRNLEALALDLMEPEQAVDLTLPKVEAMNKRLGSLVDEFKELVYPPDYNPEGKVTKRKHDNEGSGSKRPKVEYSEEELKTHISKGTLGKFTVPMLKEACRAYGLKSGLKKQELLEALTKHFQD
UniProt Q04206: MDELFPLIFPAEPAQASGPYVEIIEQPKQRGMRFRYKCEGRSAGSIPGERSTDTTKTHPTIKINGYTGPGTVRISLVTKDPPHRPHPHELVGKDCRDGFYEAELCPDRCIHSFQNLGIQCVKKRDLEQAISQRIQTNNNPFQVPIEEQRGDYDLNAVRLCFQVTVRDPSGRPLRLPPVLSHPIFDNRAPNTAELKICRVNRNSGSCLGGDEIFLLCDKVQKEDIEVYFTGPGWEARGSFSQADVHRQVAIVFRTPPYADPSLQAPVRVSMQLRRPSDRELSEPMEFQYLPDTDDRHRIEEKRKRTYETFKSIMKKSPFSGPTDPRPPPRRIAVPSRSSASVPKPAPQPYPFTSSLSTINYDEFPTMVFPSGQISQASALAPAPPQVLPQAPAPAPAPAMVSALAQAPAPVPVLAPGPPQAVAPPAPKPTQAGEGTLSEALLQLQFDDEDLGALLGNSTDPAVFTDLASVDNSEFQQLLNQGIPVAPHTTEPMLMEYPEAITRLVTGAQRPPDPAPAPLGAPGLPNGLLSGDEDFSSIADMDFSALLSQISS

B1: PYCR2 (protein, UniProt Q96C36 1-320)
chain: MSVGFIGAGQLAYALARGFTAAGILSAHKIIASSPEMNLPTVSALRKMGVNLTRSNKETVKHSDVLFLAVKPHIIPFILDEIGADVQARHIVVSCAAGVTISSVEKKLMAFQPAPKVIRCMTNTPVVVQEGATVYATGTHALVEDGQLLEQLMSSVGFCTEVEEDLIDAVTGLSGSGPAYAFMALDALADGGVKMGLPRRLAIQLGAQALLGAAKMLLDSEQHPCQLKDNVCSPGGATIHALHFLESGGFRSLLINAVEASCIRTRELQSMADQEKISPAALKKTLLDRVKLESPTVSTLTPSSPGKLLTRSLALGGKKD
B2: PYCR1 (protein, UniProt P32322 1-319)
chain: MSVGFIGAGQLAFALAKGFTAAGVLAAHKIMASSPDMDLATVSALRKMGVKLTPHNKETVQHSDVLFLAVKPHIIPFILDEIGADIEDRHIVVSCAAGVTISSIEKKLSAFRPAPRVIRCMTNTPVVVREGATVYATGTHAQVEDGRLMEQLLSSVGFCTEVEEDLIDAVTGLSGSGPAYAFTALDALADGGVKMGLPRRLAVRLGAQALLGAAKMLLHSEQHPGQLKDNVSSPGGATIHALHVLESGGFRSLLINAVEASCIRTRELQSMADQEQVSPAAIKKTILDKVKLDSPAGTALSPSGHTKLLPRSLAPAGKD

These molecules were tested against chromosome segregation 1-like (CSE1L) protein (human (endogenous in MNNG/HOS and U2OS)) (UniProt P55060) (assay: affinity purification with mass spectrometry; MNNG/HOS lysate (3000 ug protein) incubated with anti-CSE1L antibody at 4 °C overnight, protein A/G magnetic beads 3 h at 4 °C, washed with PBS containing 1% Triton X-100; CSE1L-bound proteins separated by SDS-PAGE, trypsin digestion, NanoLC-MS/MS; IgG control).

binding, binds:
mutS homolog 6 (MSH6) (from UniProt P52701 1-1360)
XRCC6 (from UniProt P12956 1-609)
RELA (from UniProt Q04206 1-551)
B1
B2
